Laboratory results published in PMC12282152.
No constants are given. Whether binding was seen depends on the method and setting. Binding seen in cells or lysates may run through a third protein. Here binding means that the protein was enriched with, or labelled near, the bait; the list need not be complete.

Molecular target: Ras GTPase-activating protein binding protein 1 (G3BP1) (African green monkey (endogenous in MA104))
Experiment: affinity purification with mass spectrometry; whole-cell lysates of mock-infected or SHFV-infected (MOI 0.1, 24 h) MA104 cells in IP lysis buffer (25 mM Tris-HCl pH 7.4, 150 mM NaCl, 1 mM EDTA, 1% NP-40, 5% glycerol); rabbit anti-G3BP1 antibody, Protein A magnetic beads, overnight at 4°C; LC-MS/MS, enrichment compared between mock and infected

B1: SHFV nsp2 (made in infected cells) (protein, UniProt Q68772 351-1236)
chain: GNASSVSWPEWKYDEQLLYADSLTAGFCWLQLFPPLSRKSEAQRAILAQQVNNYGVTGTYLEYRLRQYGIVLAECDYGEHYIYAAASDSSIRHISPVPIHDRHHVFVTRLTARFGAFDEGFDLGFGTRYGRRRGGGKKSGQSSGVRAPGRTTPDLAGDWGKAVDDQEKTASKVTTDKAMSTSEPAVVQVGCETKPVADAAAVPASVNSTGCALLPVQADPCCTAGVAAKESEPKAVAAPSIPITFGAPAGETLPVAASPLVVKKDKRCISVKLTAKKALPKETFIPPPDGGCGVHAFAAIQYHINTGHWPEQKPVVNWAYEAWTTNEDIGHMICSTETPAALEPCLHARYVVRLDSDHWVVDHYPNRPMCFVEACAHGWCSSLLSEPTGEEGEHLVDCSALYDCLGKFRNGTEFADTVLGLSKTAHCCNKRVPTPRKQAIMSLLNRPNCVPCIAPPSQVRTVDPSQPAAPLPPVPRPRKRKAAAQQVSKVPSEQDPSLAHDPPEKPDSVRPPKLGYLDRAWNNMLARTHKLHNLQQRVFGLYPQLLSMLLPSGARPSTPRLLGCYFSMAVAMFFLFLGSPLFILCAVLAGVIAPSARYPKILCCCLVVVYICTLFADAISSVCDNDDADCRAFLSDLGDRYSTNQPVYITPGPATFFLAVSRNFFVVSVALFPLHLLLLMVDVLLVIGVLCMDGYCFRCFSRCVRKAPEEVSLLTIPQSRVSRRFLLDICDFYSAPPVDIIRLATGLNGCFRGDYSPIGSSTSVITADKIDVKKVSCRTVCSFPSCPSEAVKVLHVLSVRGQMCAHNEQKVEKVDALPCKNPLFPYDLSSKKIVPVDSGTYEILSSIGCDMSHLVIGDGDFFKVMGVPRPSPFTVMRLRACRVVGG
With B1 the binding was “binds”.
